Experimental findings from PMC10039853 are described below.

For this test, the target named is hen egg lysozyme (hen (egg)) (UniProt P00698). Description: ELISA; lysozyme (1 ug/mL) coated on a 384-well MaxiSorp plate overnight at 4 C; serial concentrations of VHH in 5% BlockingOne in TBST, 1 h at room temperature; detected with Penta-His HRP conjugate; both purified. (ELISA stands for enzyme-linked immunosorbent assay.)

Results are given in words; binding and its absence hold for the method and conditions named. Some binding calls cover weakened binding; strength is not graded here.

B1: anti-hen egg lysozyme VHH D3-L11 mutant A79I (VHH)
VHH: DVQLVESGGGSVQAGGSLRLSCAASGSTDSIEYMTWFRQAPGKAREGVAALYTHTGNTYYTDSVKGRFTISQDKAKNMIYLRMDSVKSEDTAIYTCGATRKYVPVRFALDQSSYDYWGQGTQVTVSS
B1: the binding entry was “binds”.

B2: anti-hen egg lysozyme (HEL) VHH D3-L11, wild type (VHH)
VHH: DVQLVESGGGSVQAGGSLRLSCAASGSTDSIEYMTWFRQAPGKAREGVAALYTHTGNTYYTDSVKGRFTISQDKAKNMAYLRMDSVKSEDTAIYTCGATRKYVPVRFALDQSSYDYWGQGTQVTVSS
Regarding B2, the binding entry is on record as “binds”.
